Results on one substance are retold here after doi:10.1101/2020.07.08.194092.

The chains behind the UniProt entries cited, without tags or fusion partners. Where a name states a change or a piece, a line headed by the entry shows the natural chain unless it says otherwise. A line that says so, or that is headed by a name, gives the form on record, which may keep a tag or linker.
lysine methyltransferase G9a (human (endogenous in RH30 and RH41)) (Q96KQ7, form named): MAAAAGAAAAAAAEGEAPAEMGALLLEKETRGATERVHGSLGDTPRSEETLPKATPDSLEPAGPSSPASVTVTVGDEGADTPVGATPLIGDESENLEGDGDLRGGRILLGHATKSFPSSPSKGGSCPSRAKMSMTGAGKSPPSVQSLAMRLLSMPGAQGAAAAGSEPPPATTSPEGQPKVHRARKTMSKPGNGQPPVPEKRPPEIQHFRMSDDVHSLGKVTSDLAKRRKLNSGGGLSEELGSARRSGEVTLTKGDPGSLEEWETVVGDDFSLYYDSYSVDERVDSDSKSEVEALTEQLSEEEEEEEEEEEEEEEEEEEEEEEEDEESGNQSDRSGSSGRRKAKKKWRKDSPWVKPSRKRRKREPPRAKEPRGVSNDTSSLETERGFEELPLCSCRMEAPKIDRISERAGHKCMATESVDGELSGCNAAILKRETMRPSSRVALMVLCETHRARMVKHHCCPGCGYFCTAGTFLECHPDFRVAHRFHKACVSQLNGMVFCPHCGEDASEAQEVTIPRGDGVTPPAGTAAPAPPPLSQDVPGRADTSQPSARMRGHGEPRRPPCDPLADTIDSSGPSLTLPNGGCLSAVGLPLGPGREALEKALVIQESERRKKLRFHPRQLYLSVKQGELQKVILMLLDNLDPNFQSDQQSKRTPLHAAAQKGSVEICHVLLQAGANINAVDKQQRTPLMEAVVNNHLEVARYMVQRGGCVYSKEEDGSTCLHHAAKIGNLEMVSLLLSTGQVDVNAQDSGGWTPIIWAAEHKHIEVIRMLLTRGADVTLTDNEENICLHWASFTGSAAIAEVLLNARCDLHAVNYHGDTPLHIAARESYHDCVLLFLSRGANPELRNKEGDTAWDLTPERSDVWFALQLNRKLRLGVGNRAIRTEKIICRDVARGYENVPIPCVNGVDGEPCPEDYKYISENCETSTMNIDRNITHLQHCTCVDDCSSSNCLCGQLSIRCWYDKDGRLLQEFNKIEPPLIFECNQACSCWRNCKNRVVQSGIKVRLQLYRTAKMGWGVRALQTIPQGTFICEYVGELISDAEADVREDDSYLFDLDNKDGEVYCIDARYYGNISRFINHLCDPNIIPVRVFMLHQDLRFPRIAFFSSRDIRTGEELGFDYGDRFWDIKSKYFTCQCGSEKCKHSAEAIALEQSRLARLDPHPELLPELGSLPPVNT

The assay deals with lysine methyltransferase G9a (human (endogenous in RH30 and RH41)) (UniProt Q96KQ7). Kind of assay: co-IP.

These are yes or no findings as the source states them, for the method shown. In cells and extracts the contact can be indirect. Some entries that bind do so weakly or less than the wild type.

For “DEAD box RNA helicase 5 (DDX5) (from UniProt P17844-1 1-614)”, the binding result is “binds”.
